# Results of single-concentration screens

The filed quantity is “Percent Effect” (%). The controls that fix the scale are not given in the record; negative values are as filed. The compounds are a random part of those screened. A dash means the value is not listed here; it may have been measured.

T. brucei: 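Whole-parasite assay of Trypanosoma brucei over 72 hours; the read-out is not stated. Tested at 30 µM. The record gives no direction; compounds that gave an IC50 in retests scored well above the rest, so higher reads as stronger inhibition. Values scatter widely below zero; nearly all retest evidence comes from the higher of the two concentrations used. Of about 64,000 compounds tested this way, about 940 (1.5%) reached 50% or more in at least one test.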
Toxoplasma: 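Assay of Toxoplasma gondii numbers, read through their beta-galactosidase reporter with a colour substrate. Concentration: 10 µM. The record gives no direction; the compounds picked for IC50 retests had high values, so higher reads as fewer parasites. Size under these conditions: about 67,000 compounds, about 260 of them at 50% or above in at least one test.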

| # | SMILES | T. brucei | Toxoplasma |
|---|---|---|---|
| 1 | `COc1ccccc1CC1CCN(C(=O)CCc2ccccn2)CC1` | 1.201 | 3.262 |
| 2 | `Cc1ccc(-c2noc([C@@H]3C[C@H](NC(=O)CC(C)(C)C)CN3C)n2)cc1` | -12.73 | -1.413 |
| 3 | `Cc1ccccc1N1CC(C)N(Cc2ccc(C)c(F)c2F)CC1=O` (stereo unspecified) | -53.21 | -7.234 |
| 4 | `CN1CCN(C(=O)C2(S(C)(=O)=O)CCCC2)Cc2ccccc21` | -49.63 | 17.85 |
| 5 | `Cc1nc(C)n(C2CCCN(C(=O)CCn3ccnn3)C2)n1` (stereo unspecified) | -5.646 | 7.304 |
| 6 | `COc1ccc(CN2C[C@H](O)C[C@H]2c2nc(-c3ccccc3)no2)cc1` | -27.09 | 5.419 |
| 7 | `Cc1noc(C)c1CN1CCC2(CC1)CCN(C(=O)c1cscn1)C2.O=C(O)C(F)(F)F` | -65.73 | 16.13 |
| 8 | `O=C(C1CC(c2cccc(F)c2)=NO1)N1CCc2ccccc21` (stereo unspecified) | -105.1 | 10.32 |
| 9 | `NC(=O)CC1CCN(C(=O)c2cnc(-c3ccccc3F)s2)CC1` | -15.33 | 1.095 |
| 10 | `CCN(CC)C(=O)Cn1c(-c2ccc(Cl)cc2)nc(C)c(CCO)c1=O` | -32.66 | -0.8403 |
| 11 | `CC1CN(C(=O)NCc2ccn(C)c2)CCN1CC(F)(F)F` (stereo unspecified) | -17.22 | -3.502 |
| 12 | `Cc1nc(CN2CCC(c3ccnn3CCO)CC2)oc1C` | -10.92 | -3.565 |
| 13 | `Fc1ccc(CN2CCC(c3noc(-c4cnccn4)n3)CC2)cc1F` | - | 5.556 |
| 14 | `Cn1cc(C(=O)CC2CCCN2C(=O)c2coc3ccccc23)cn1` (stereo unspecified) | 14.42 | -23.8 |
| 15 | `CCOC(C)c1noc(CN2CCN(Cc3cccnc3)CC2)n1` (stereo unspecified) | -27.15 | -4.132 |
| 16 | `O=C(CCN1CCCC1c1ccccn1)N1CCc2ccccc2C1` (stereo unspecified) | 2.146 | -1.549 |
| 17 | `CNS(=O)(=O)c1ccc(CNC(=O)Nc2cn[nH]c2)cc1` | -25.73 | -19.24 |
| 18 | `Cn1ccnc(Nc2ccc3c(c2)CCN3C(=O)c2cccnc2)c1=O` | - | 1.531 |
| 19 | `CCN1CC(=O)NCC12CCN(C(=O)c1ccno1)C2.O=C(O)C(F)(F)F` (stereo unspecified) | -22.83 | 4.061 |
| 20 | `[H][C@@]12C[C@@H](C)O[C@]1([H])CN(C(=O)C1=CCCCC1)C2` | 1.853 | -25.65 |
| 21 | `O=c1cc(-c2ccncc2)nc(-c2ccc(CN3CC[C@H](O)C3)cc2)[nH]1` | 2.75 | 8.329 |
| 22 | `CNC(=O)Cc1ccccc1NC(=O)N[C@H]1c2ccccc2C[C@H]1O` | -45.65 | -42 |
| 23 | `COCc1noc(CN2CC(Cc3ccccc3)CC2=O)n1` (stereo unspecified) | -21.09 | -10.48 |
| 24 | `COC(C)c1cccc(NC(=O)N(CCC#N)Cc2ccccn2)c1` (stereo unspecified) | -14.37 | 0.7692 |
| 25 | `Cc1cc(C(=O)N2CCCC(n3cncn3)C2)no1` (stereo unspecified) | -3.487 | -28.4 |
| 26 | `CC(C(=O)NCCc1ccc2c(c1)OCCO2)n1cncn1` (stereo unspecified) | -30.32 | -6.621 |
| 27 | `O=C1NCCCCC1NS(=O)(=O)N1CCCCC1` (stereo unspecified) | -7.186 | -1.561 |
| 28 | `COc1cccc(CC(=O)NCCc2nnc3n2CCCCC3)c1` | -29.83 | -6.208 |
| 29 | `Cc1oc(-c2ccccc2)nc1CC(=O)NC1=NCCS1` | -23.53 | 22.69 |
| 30 | `CCc1nc2n(n1)CC(NCc1ccccc1OCC(=O)NC)CC2` (stereo unspecified) | 3.086 | 5.251 |
| 31 | `CCOc1ccc(C(=O)N2CCCC(c3nccn3C)C2)cc1OCC` (stereo unspecified) | -33.07 | -0.1815 |
| 32 | `COc1ncccc1C(=O)NCCn1nc(C)ccc1=O` | 2.962 | -10.13 |
| 33 | `Cc1noc(C(C)C)c1C(=O)NCc1ccc2c(c1)OCCO2` | 2.075 | 9.202 |
| 34 | `CCc1c(C)sc2ncnc(N3C[C@H](O)[C@@H](N4CCCC4)C3)c12` | 23.3 | 9.621 |
| 35 | `O=C(O)C(F)(F)F.O=C(O)C(F)(F)F.O=C(O)C(F)(F)F.[H][C@]12C[C@H](C(=O)NC)N(C(C)C)[C@@]1([H])CN(Cc1cccnc1OC)C2` | -55.3 | -5.606 |
| 36 | `[H][C@@]12CCN(S(=O)(=O)C3CC3)[C@]1([H])CC[C@@H](c1nc(C)no1)O2` | -32.26 | -10.42 |
| 37 | `CCOc1ccccc1OC1CCN(C(=O)c2[nH]nc(C)c2Br)CC1` | -11.09 | -6.477 |
| 38 | `O=C(O)C(F)(F)F.[H][C@@]12CCCO[C@]1([H])[C@H](N(C)C)CN2C(=O)Cc1ccc(F)cc1` | -12.86 | 16.12 |
| 39 | `Cc1ccc(C)c(CNC(=O)NC(C)(C(=O)O)c2ccco2)c1` (stereo unspecified) | 32.41 | -6.34 |
| 40 | `N#Cc1ccc(CCC(=O)N2CCC(CN3CCOCC3)CC2)cc1` | -40.87 | -6.328 |
| 41 | `COCCN1CCCC1c1nccnc1Nc1ncc(C)s1` (stereo unspecified) | 35.18 | 6.061 |
| 42 | `CN(C)C(=O)CCCNc1ncc2c(n1)CCN2c1ccccc1` | -16.56 | 4.116 |
| 43 | `CCn1ccnc1CN(C)Cc1nc(CCC(C)C)no1` | -84.91 | -0.7134 |
| 44 | `[H][C@@]12COC[C@]1(c1nnc(C3CC3)o1)CN(C(=O)C(C)(C)C)C2` | -33.68 | 0.7836 |
| 45 | `CN1CCCN(C(=O)c2cc3c(s2)CCN3C(=O)C2CC2)CC1` | -4.377 | 7.195 |
| 46 | `CCc1ncc2c(n1)CN(C(C)C(=O)N1CCOCC1)CC2` (stereo unspecified) | -71.85 | 17.99 |
| 47 | `CC(C)(C)CC(=O)N1CC[C@@H](CC(=O)O)[C@@H](CCN2CCCCC2)C1` | -7.269 | -7.696 |
| 48 | `Cc1ccc(CN(c2cc(C)nc3nc(C(F)(F)F)nn23)C2CC2)cc1` | -21.68 | 14.3 |
| 49 | `COc1cc(C2(C(=O)NCCn3ccnc3)CCCC2)ccc1C` | 12.98 | -1.123 |
| 50 | `CNC(=O)c1cc2c(nc1NCC1CC1)CCN(c1ccncn1)CC2.O=C(O)C(F)(F)F` | 7.441 | 1.913 |
| 51 | `CNc1cc(C2CCCN2Cc2ccccc2C(=O)O)ccn1` (stereo unspecified) | 16.78 | 4.933 |
| 52 | `CCN(CC1COc2ccccc2O1)C(=O)NCCCn1cncn1` (stereo unspecified) | 11.66 | -3.146 |
| 53 | `COC(=O)c1cc(OCC2CCC2)cc(C(=O)N[C@@H]2CNCC[C@H]2O)c1` | -52.37 | 1.642 |
| 54 | `COc1cccc(F)c1C(C)NC(=O)NCCc1ccc(C)nc1` (stereo unspecified) | -12.28 | -3.995 |
| 55 | `O=C(c1cc(COc2ccc3c(c2)OCO3)[nH]n1)N1CC=CC1CO` (stereo unspecified) | 6.276 | 15.77 |
| 56 | `N#Cc1ccc(S(=O)(=O)NC(=O)c2csc(-c3ccco3)n2)cc1` | 2.361 | 2.614 |
| 57 | `CC(=O)N1CCN(c2cc(C3CN(C)CCO3)nc(C)n2)CC1` (stereo unspecified) | 8.262 | 2.627 |
| 58 | `CC1c2ncc(COCC3CCOCC3)n2CCN1Cc1cccnc1.O=C(O)C(F)(F)F.O=C(O)C(F)(F)F` (stereo unspecified) | - | -14.05 |
| 59 | `COc1cc(NC(=O)NC2CCOCC2)ccc1N1CCOC1=O` | -8.326 | -1.953 |
| 60 | `O=C(Nc1cccc(C(F)(F)F)c1)N1CCN(CCn2ccnc2)CC1` | -8.126 | -2.535 |
| 61 | `CC(C)c1ncc(CN2CCC(CO)C2)cn1.O=C(O)CC(O)(CC(=O)O)C(=O)O` (stereo unspecified) | -24.24 | 10.54 |
| 62 | `CCCc1cc(CNC(=O)C2CCOc3ccccc3C2)on1` (stereo unspecified) | 27.09 | -9.498 |
| 63 | `O=C(O)C(F)(F)F.O=C(O)C(F)(F)F.[H][C@@]12COC[C@]1(COc1cccnc1)CN(Cc1ccc(OC)cc1)C2` | 11.08 | 4.835 |
| 64 | `Cc1nc(C2CCCN(C(=O)c3ccc(Cl)cn3)C2)no1` (stereo unspecified) | 3.499 | -17.91 |
| 65 | `Cc1cc(C)n(CCCN(C)C(=O)CN2CC3(CCNCC3)OC2=O)n1` | -32.84 | 4.331 |
| 66 | `CCN(CC)CCNc1c(-c2ccccc2)c(=O)c1=O` | -1.3 | -5.273 |

Some entries from above, unchanged:

| SMILES | T. brucei | Toxoplasma |
|---|---|---|
| `CN1CCN(C(=O)C2(S(C)(=O)=O)CCCC2)Cc2ccccc21` | -49.63 | 17.85 |
| `CNC(=O)Cc1ccccc1NC(=O)N[C@H]1c2ccccc2C[C@H]1O` | -45.65 | -42 |
| `Cc1nc(C)n(C2CCCN(C(=O)CCn3ccnn3)C2)n1` (stereo unspecified) | -5.646 | 7.304 |
| `CCN(CC)CCNc1c(-c2ccccc2)c(=O)c1=O` | -1.3 | -5.273 |
| `CN1CCCN(C(=O)c2cc3c(s2)CCN3C(=O)C2CC2)CC1` | -4.377 | 7.195 |
| `O=C(CCN1CCCC1c1ccccn1)N1CCc2ccccc2C1` (stereo unspecified) | 2.146 | -1.549 |
| `CCOC(C)c1noc(CN2CCN(Cc3cccnc3)CC2)n1` (stereo unspecified) | -27.15 | -4.132 |
| `[H][C@@]12CCN(S(=O)(=O)C3CC3)[C@]1([H])CC[C@@H](c1nc(C)no1)O2` | -32.26 | -10.42 |

Measurements from “University of Dundee, Small-Polar-MMV Screening Library” (2021), ChEMBL document CHEMBL3988442.